Laboratory results reported in doi:10.1101/2023.01.03.522557.
No constants are given. Whether binding was seen depends on the method and setting. In cells and extracts the contact can be indirect. Some results given as binding are weak or reduced against the parent protein; the word gives no strength.

By UniProt entry, the sequences of proteins in these tests, tags left out.
UniProt A2AG58, whole entry: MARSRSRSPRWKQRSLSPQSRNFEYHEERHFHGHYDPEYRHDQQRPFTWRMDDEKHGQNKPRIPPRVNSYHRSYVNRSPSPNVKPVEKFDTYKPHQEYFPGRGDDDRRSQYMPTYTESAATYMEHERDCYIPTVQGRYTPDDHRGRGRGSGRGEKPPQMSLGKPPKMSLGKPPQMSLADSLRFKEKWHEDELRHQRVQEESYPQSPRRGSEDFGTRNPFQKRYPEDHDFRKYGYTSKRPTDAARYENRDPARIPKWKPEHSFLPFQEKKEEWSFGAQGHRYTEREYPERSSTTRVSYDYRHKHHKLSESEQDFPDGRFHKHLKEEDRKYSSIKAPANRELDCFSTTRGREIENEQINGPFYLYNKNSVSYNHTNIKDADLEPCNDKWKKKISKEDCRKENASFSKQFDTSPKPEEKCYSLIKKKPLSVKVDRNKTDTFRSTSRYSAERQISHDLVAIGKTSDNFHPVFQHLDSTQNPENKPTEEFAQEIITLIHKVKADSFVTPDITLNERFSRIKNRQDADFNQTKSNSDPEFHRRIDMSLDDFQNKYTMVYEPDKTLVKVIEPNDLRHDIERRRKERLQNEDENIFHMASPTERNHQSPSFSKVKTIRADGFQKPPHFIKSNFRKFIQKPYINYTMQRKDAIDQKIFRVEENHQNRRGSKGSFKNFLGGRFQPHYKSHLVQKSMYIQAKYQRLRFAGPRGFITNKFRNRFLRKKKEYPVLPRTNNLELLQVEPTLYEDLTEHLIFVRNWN
UniProt Q9QX47, whole entry: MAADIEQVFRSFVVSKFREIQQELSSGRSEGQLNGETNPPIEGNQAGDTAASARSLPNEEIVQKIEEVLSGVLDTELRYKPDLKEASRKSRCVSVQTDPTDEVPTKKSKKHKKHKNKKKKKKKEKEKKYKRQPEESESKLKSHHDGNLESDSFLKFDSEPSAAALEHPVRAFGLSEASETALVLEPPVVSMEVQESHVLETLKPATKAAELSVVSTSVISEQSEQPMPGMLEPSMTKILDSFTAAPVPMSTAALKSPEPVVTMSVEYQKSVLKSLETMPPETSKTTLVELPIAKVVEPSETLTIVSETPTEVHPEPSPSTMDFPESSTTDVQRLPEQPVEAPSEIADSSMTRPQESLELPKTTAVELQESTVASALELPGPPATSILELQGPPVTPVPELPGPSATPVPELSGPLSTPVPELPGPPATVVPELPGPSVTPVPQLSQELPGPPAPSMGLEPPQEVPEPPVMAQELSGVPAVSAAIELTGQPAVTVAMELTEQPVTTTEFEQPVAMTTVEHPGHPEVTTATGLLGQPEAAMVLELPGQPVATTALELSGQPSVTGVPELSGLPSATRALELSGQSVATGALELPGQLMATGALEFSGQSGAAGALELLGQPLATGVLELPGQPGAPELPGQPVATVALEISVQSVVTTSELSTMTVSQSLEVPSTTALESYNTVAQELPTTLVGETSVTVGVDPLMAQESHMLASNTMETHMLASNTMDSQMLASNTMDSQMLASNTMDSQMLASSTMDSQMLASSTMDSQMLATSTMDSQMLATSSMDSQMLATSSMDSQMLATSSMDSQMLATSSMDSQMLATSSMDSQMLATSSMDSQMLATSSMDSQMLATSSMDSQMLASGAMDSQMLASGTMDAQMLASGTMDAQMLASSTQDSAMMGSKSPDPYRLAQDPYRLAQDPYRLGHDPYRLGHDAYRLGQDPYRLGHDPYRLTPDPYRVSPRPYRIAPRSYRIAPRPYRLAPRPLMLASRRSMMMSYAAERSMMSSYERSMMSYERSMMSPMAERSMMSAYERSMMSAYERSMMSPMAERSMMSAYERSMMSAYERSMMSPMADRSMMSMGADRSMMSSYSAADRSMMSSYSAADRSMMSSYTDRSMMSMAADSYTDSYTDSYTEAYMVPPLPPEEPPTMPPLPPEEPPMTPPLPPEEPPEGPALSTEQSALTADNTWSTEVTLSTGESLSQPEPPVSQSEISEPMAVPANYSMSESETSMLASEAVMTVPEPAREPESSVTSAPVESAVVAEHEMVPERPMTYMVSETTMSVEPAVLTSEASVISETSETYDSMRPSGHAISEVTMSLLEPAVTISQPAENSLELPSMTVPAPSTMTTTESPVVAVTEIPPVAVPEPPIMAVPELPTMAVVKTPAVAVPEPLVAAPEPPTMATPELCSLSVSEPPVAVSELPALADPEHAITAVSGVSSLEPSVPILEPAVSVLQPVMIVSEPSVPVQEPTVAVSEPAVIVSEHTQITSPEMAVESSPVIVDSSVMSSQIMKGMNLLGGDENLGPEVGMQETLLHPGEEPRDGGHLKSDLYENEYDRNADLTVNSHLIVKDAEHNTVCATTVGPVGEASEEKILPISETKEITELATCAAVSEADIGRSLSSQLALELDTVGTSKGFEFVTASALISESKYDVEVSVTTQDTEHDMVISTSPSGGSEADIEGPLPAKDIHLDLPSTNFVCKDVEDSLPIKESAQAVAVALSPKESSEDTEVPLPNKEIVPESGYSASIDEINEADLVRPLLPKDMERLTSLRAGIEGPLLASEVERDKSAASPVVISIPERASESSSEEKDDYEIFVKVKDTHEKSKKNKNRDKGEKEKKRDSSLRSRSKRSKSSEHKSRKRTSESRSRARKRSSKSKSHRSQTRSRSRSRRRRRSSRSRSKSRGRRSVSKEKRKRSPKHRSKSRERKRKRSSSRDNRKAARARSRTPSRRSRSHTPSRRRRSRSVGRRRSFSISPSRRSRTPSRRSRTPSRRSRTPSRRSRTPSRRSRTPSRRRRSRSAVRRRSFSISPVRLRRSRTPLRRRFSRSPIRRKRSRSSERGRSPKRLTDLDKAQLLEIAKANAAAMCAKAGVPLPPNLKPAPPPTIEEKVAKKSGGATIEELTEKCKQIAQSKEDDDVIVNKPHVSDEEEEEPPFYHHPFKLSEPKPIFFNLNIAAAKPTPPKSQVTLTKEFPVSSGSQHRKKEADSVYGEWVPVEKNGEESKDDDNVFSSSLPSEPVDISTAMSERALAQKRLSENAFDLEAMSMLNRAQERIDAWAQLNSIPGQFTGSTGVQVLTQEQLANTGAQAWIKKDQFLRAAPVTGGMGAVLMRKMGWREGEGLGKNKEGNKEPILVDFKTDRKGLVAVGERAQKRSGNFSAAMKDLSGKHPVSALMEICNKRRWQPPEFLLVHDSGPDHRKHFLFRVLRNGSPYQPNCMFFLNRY

Biological target: 3XHA TOBF1 (mouse) (UniProt A2AG58)
Test: co-IP

SON (from UniProt Q9QX47 1-2444)
binding: binds
